Assay results: PMC7594058

Chains of the proteins cited; added tags and fusions are not shown.
UniProt P03072: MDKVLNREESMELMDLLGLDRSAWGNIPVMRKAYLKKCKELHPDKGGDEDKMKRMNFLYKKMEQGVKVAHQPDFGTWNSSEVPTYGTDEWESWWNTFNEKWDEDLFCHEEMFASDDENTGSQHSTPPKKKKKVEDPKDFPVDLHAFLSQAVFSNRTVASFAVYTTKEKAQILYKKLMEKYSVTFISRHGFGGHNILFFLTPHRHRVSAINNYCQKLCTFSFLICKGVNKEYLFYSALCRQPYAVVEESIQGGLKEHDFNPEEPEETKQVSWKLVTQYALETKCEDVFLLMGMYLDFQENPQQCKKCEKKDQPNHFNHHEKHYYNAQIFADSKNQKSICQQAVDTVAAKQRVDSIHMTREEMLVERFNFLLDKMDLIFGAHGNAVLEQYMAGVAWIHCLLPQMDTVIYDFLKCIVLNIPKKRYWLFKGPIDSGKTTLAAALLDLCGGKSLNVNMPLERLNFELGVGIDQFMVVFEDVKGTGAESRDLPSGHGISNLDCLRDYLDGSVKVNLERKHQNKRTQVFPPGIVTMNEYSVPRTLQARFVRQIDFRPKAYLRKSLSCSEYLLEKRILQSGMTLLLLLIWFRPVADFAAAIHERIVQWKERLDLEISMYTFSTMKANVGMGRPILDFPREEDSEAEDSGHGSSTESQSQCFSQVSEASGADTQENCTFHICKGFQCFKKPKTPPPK
UniProt P03083: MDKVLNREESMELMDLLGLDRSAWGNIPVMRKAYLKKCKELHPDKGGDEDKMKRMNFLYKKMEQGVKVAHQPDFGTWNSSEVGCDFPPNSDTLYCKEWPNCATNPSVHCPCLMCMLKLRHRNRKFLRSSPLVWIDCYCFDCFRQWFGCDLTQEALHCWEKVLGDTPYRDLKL

B1: Signal recognition particle 9 kDa protein (protein, UniProt P49458 1-86)
chain: MPQYQTWEEFSRAAEKLYLADPMKARVVLKYRHSDGNLCVKVTDDLVCLVYKTDQAQDVKKIEKFHSQLMRLMVAKEARNVTMETE
B2: RNA-binding protein 12B (protein, UniProt Q8IXT5 1-1001)
chain: MAVVIRLLGLPFIAGPVDIRHFFTGLTIPDGGVHIIGGEIGEAFIIFATDEDARRAISRSGGFIKDSSVELFLSSKAEMQKTIEMKRTDRVGRGRPGSGTSGVDSLSNFIESVKEEASNSGYGSSINQDAGFHTNGTGHGNLRPRKTRPLKAENPYLFLRGLPYLVNEDDVRVFFSGLCVDGVIFLKHHDGRNNGDAIVKFASCVDASGGLKCHRSFMGSRFIEVMQGSEQQWIEFGGNAVKEGDVLRRSEEHSPPRGINDRHFRKRSHSKSPRRTRSRSPLGFYVHLKNLSLSIDERDLRNFFRGTDLTDEQIRFLYKDENRTRYAFVMFKTLKDYNTALSLHKTVLQYRPVHIDPISRKQMLKFIARYEKKRSGSLERDRPGHVSQKYSQEGNSGQKLCIYIRNFPFDVTKVEVQKFFADFLLAEDDIYLLYDDKGVGLGEALVKFKSEEQAMKAERLNRRRFLGTEVLLRLISEAQIQEFGVNFSVMSSEKMQARSQSRERGDHSHLFDSKDPPIYSVGAFENFRHQLEDLRQLDNFKHPQRDFRQPDRHPPEDFRHSSEDFRFPPEDFRHSPEDFRRPREEDFRRPSEEDFRRPWEEDFRRPPEDDFRHPREEDWRRPLEEDWRRPLEEDFRRSPTEDFRQLPEEDFRQPPEEDLRWLPEEDFRRPPEEDWRRPPEEDFRRPLQGEWRRPPEDDFRRPPEEDFRHSPEEDFRQSPQEHFRRPPQEHFRRPPPEHFRRPPPEHFRRPPPEHFRRPPPEHFRRPPPEHFRRPPPEHFRRPPQEHFRRPPQEHFRRSREEDFRHPPDEDFRGPPDEDFRHPPDEDFRSPQEEDFRCPSDEDFRQLPEEDLREAPEEDPRLPDNFRPPGEDFRSPPDDFRSHRPFVNFGRPEGGKFDFGKHNMGSFPEGRFMPDPKINCGSGRVTPIKIMNLPFKANVNEILDFFHGYRIIPDSVSIQYNEQGLPTGEAIVAMINYNEAMAAIKDLNDRPVGPRKVKLTLL
B3: Ras-GTPase activating protein SH3 domain-binding protein 2 (protein, UniProt Q9UN86 1-482)
chain: MVMEKPSPLLVGREFVRQYYTLLNKAPEYLHRFYGRNSSYVHGGVDASGKPQEAVYGQNDIHHKVLSLNFSECHTKIRHVDAHATLSDGVVVQVMGLLSNSGQPERKFMQTFVLAPEGSVPNKFYVHNDMFRYEDEVFGDSEPELDEESEDEVEEEQEERQPSPEPVQENANSGYYEAHPVTNGIEEPLEESSHEPEPEPESETKTEELKPQVEEKNLEELEEKSTTPPPAEPVSLPQEPPKAFSWASVTSKNLPPSGTVSSSGIPPHVKAPVSQPRVEAKPEVQSQPPRVREQRPRERPGFPPRGPRPGRGDMEQNDSDNRRIIRYPDSHQLFVGNLPHDIDENELKEFFMSFGNVVELRINTKGVGGKLPNFGFVVFDDSEPVQRILIAKPIMFRGEVRLNVEEKKTRAARERETRGGGDDRRDIRRNDRGPGGPRGIVGGGMMRDRDGRGPPPRGGMAQKLGSGRGTGQMEGRFTGQRR
B4: Ribonucleoprotein PTB-binding 1 (protein, UniProt Q8IY67 1-606)
chain: MAADVSVTHRPPLSPKSGAEVEAGDAAERRAPEEELPPLDPEEIRKRLEHTERQFRNRRKILIRGLPGDVTNQEVHDLLSDYELKYCFVDKYKGTAFVTLLNGEQAEAAINAFHQSRLRERELSVQLQPTDALLCVANLPPSLTQQQFEELVRPFGSLERCFLVYSERTGQSKGYGFAEYMKKDSAARAKSDLLGKPLGPRTLYVHWTDAGQLTPALLHSRCLCVDRLPPGFNDVDALCRALSAVHSPTFCQLACGQDGQLKGFAVLEYETAEMAEEAQQQADGLSLGGSHLRVSFCAPGPPGRSMLAALIAAQATALNRGKGLLPEPNILQLLNNLGPSASLQLLLNPLLHGSAGGKQGLLGAPPAMPLLNGPALSTALLQLALQTQGQKKPGILGDSPLGALQPGAQPANPLLGELPAGGGLPPELPPRRGKPPPLLPSVLGPAGGDREALGLGPPAAQLTPPPAPVGLRGSGLRGPLSHFYSGSPTSYFTSGLQAGLKQSHLSKAIGSSPLGSGEGLLGLSPGPNGHSHLLKVRAGGGDMQGWEAPAPQRPLTRPALPSVSRPHWAARNAALPTCCPRPSPAQKAAMWASTPRASAATTRTPT
B5: Splicing factor 1, isoform CRA_d (protein, UniProt Q15637 1-639)
chain: MATGANATPLDFPSKKRKRSRWNQDTMEQKTVIPGMPTVIPPGLTREQERAYIVQLQIEDLTRKLRTGDLGIPPNPEDRSPSPEPIYNSEGKRLNTREFRTRKKLEEERHNLITEMVALNPDFKPPADYKPPATRVSDKVMIPQDEYPEINFVGLLIGPRGNTLKNIEKECNAKIMIRGKGSVKEGKVGRKDGQMLPGEDEPLHALVTANTMENVKKAVEQIRNILKQGIETPEDQNDLRKMQLRELARLNGTLREDDNRILRPWQSSETRSITNTTVCTKCGGAGHIASDCKFQRPGDPQSAQDKARMDKEYLSLMAELGEAPVPASVGSTSGPATTPLASAPRPAAPANNPPPPSLMSTTQSRPPWMNSGPSESRPYHGMHGGGPGGPGGGPHSFPHPLPSLTGGHGGHPMQHNPNGPPPPWMQPPPPPMNQGPHPPGHHGPPPMDQYLGSTPVGSGVYRLHQGKGMMPPPPMGMMPPPPPPPSGQPPPPPSGPLPPWQQQQQQPPPPPPPSSSMASSTPLPWQQNTTTTTTSAGTGSIPPWQQQQAAAAASPGAPQMQGNPTMVPLPPGVQPPLPPGAPPPPPPPPPGSAGMMYAPPPPPPPPMDPSNFVTMMGMGVAGMPPFGMPPAPPPPPPQN
B6: THO complex subunit 3 (protein, UniProt Q96J01 1-351)
chain: MAVPAAAMGPSALGQSGPGSMAPWCSVSSGPSRYVLGMQELFRGHSKTREFLAHSAKVHSVAWSCDGRRLASGSFDKTASVFLLEKDRLVKENNYRGHGDSVDQLCWHPSNPDLFVTASGDKTIRIWDVRTTKCIATVNTKGENINICWSPDGQTIAVGNKDDVVTFIDAKTHRSKAEEQFKFEVNEISWNNDNNMFFLTNGNGCINILSYPELKPVQSINAHPSNCICIKFDPMGKYFATGSADALVSLWDVDELVCVRCFSRLDWPVRTLSFSHDGKMLASASEDHFIDIAEVETGDKLWEVQCESPTFTVAWHPKRPLLAFACDDKDGKYDSSREAGTVKLFGLPNDS
B7: Phosphate carrier protein, mitochondrial (protein, UniProt Q00325 50-362)
chain: AVEEQYSCDYGSGRFFILCGLGGIISCGTTHTALVPLDLVKCRMQVDPQKYKGIFNGFSVTLKEDGVRGLAKGWAPTFLGYSMQGLCKFGFYEVFKVLYSNMLGEENTYLWRTSLYLAASASAEFFADIALAPMEAAKVRIQTQPGYANTLRDAAPKMYKEEGLKAFYKGVAPLWMRQIPYTMMKFACFERTVEALYKFVVPKPRSECSKPEQLVVTFVAGYIAGVFCAIVSHPADSVVSVLNKEKGSSASLVLKRLGFKGVWKGLFARIIMIGTLTALQWFIYDSVKVYFRLPRPPPPEMPESLKKKLGLTQ
B8: Isoform 2 of Caprin-1 (protein, UniProt Q14444-2 1-694)
chain: MPSATSHSGSGSKSSGPPPPSGSSGSEAAAGAGAAAPASQHPATGTGAVQTEAMKQILGVIDKKLRNLEKKKGKLDDYQERMNKGERLNQDQLDAVSKYQEVTNNLEFAKELQRSFMALSQDIQKTIKKTARREQLMREEAEQKRLKTVLELQYVLDKLGDDEVRTDLKQGLNGVPILSEEELSLLDEFYKLVDPERDMSLRLNEQYEHASIHLWDLLEGKEKPVCGTTYKVLKEIVERVFQSNYFDSTHNHQNGLCEEEEAASAPAVEDQVPEAEPEPAEEYTEQSEVESTEYVNRQFMAETQFTSGEKEQVDEWTVETVEVVNSLQQQPQAASPSVPEPHSLTPVAQADPLVRRQRVQDLMAQMQGPYNFIQDSMLDFENQTLDPAIVSAQPMNPTQNMDMPQLVCPPVHSESRLAQPNQVPVQPEATQVPLVSSTSEGYTASQPLYQPSHATEQRPQKEPIDQIQATISLNTDQTTASSSLPAASQPQVFQAGTSKPLHSSGINVNAAPFQSMQTVFNMNAPVPPVNEPETLKQQNQYQASYNQSFSSQPHQVEQTELQQEQLQTVVGTYHGSPDQSHQVTGNHQQPPQQNTGFPRSNQPYYNSRGVSRGGSRGARGLMNGYRGPANGFRGGYDGYRPSFSNTPNSGYTQSQFSAPRDYSGYQRDGYQQNFKRGSGQSGPRGAPRGNILWW

How the values were obtained:
[1] = target: T7-2xStrep-JCV LT-Ag (JC virus (JCV)) (UniProt P03072); assay: affinity purification with mass spectrometry
[2] = target: T7-2xStrep-JCV Sm t-Ag (JC virus (JCV)) (UniProt P03083); assay: affinity purification with mass spectrometry

Binder | binding [1] | binding [2]
B1 | binds | binds
B2 | binds | binds
B3 | binds | binds
B4 | binds | binds
B5 | binds | binds
B6 | binds | binds
B7 | binds | binds
B8 | binds | binds

No constants are given. Whether binding was seen depends on the method and setting. Binding seen in cells or lysates may run through a third protein. A yes stands for co-enrichment or nearness to the bait. Other partners may have been found.
